In patent US8962646B2, “Peripherally acting opioid compounds” (Alkermes, Inc., priority 2011, dated 2015):

Tested on: acetic acid induced writhing
Assay: Acetic-acid induced writhing model of inflammatory pain
Format: in vivo
Settings: mice, intraperitoneal, 1% acetic acid
Experimental: The number of writhes was counted for 15 minutes (3 consecutive 5 minute time bins). […] “Normal” posture was defined as movements opposite to those listed above (e.g. convex curvature of the spine, legs not extended, abdomen not lowered, tail in a straight or relaxed position, etc).
The total number of writhes over the 15 minute test session was used for all data analysis. All data was transformed using GraphPad Prism to % change from daily vehicle control for analysis based on the number of writhes produced by the saline vehicle control group (% change=# writhes in test group/mean # of writhes in daily vehicle control group*100).

## CN1CC[C@]23c4c5ccc(O)c4O[C@H]2[C@@H](O)C=CC3C1C5 (some centres unmarked) [A, morphine, reference compound]
Mus musculus, ip
  ED50: 0.25 mg/kg
  Effect on acetic acid induced writhing: dose-dependently blocks writhing
